{"source": "PubChem BioAssay AID1259405 (NCATS, 2018)", "aim": "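Knock-downs that lift recombinant protein yield in hamster ovary cells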 (primary screen)", "system": "Chinese hamster CHO-K1 ovary cells with stable secreted eGFP expression", "reagent": "single siRNA against mouse genes, 0.8 pmol siRNA per well (2 µl of 400 nM stock)", "timing": "3 days", "detection": "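Percent of the per-plate non-targeting control median for intracellular GFP per well by laser scanning cytometry and for cell viability by ATP luminescence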", "direction": "GFP, % of control: higher = more GFP per well, higher productivity; viability (ATP), % of control: higher = more viable cells (more ATP)", "rule for the call": "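Called active when intracellular GFP, relative to negative control, is at or above 120%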", "note": "Here is one part, drawn at random, of about 50,000 reagents. About 4,000 of all reagents (8%) count as active. 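Mouse siRNA library applied to hamster cells; one well for each siRNA.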 The numbers tell different reagents against one gene apart."}
{"gene": "Slc14a1", "siRNA no.": 1, "GFP, % of control": 82.7, "viability (ATP), % of control": 84.7, "Call": "inactive"}
{"gene": "Slc14a1", "siRNA no.": 2, "GFP, % of control": 88, "viability (ATP), % of control": 59, "Call": "inactive"}
{"gene": "Slc14a1", "siRNA no.": 3, "GFP, % of control": 81.8, "viability (ATP), % of control": 77.8, "Call": "inactive"}
{"gene": "Megf11", "siRNA no.": 1, "GFP, % of control": 13.8, "viability (ATP), % of control": 21.1, "Call": "inactive"}
{"gene": "Megf11", "siRNA no.": 2, "GFP, % of control": 47.3, "viability (ATP), % of control": 69.7, "Call": "inactive"}
{"gene": "Megf11", "siRNA no.": 3, "GFP, % of control": 18.8, "viability (ATP), % of control": 62.3, "Call": "inactive"}
{"gene": "Exoc3l", "siRNA no.": 1, "GFP, % of control": 58.8, "viability (ATP), % of control": 84.5, "Call": "inactive"}
{"gene": "Exoc3l", "siRNA no.": 2, "GFP, % of control": 82.2, "viability (ATP), % of control": 68.3, "Call": "inactive"}
{"gene": "Exoc3l", "siRNA no.": 3, "GFP, % of control": 63.6, "viability (ATP), % of control": 80.3, "Call": "inactive"}
{"gene": "Cntln", "siRNA no.": 1, "GFP, % of control": 94, "viability (ATP), % of control": 84.3, "Call": "inactive"}
{"gene": "Cntln", "siRNA no.": 2, "GFP, % of control": 111, "viability (ATP), % of control": 70.5, "Call": "inactive"}
{"gene": "Cntln", "siRNA no.": 3, "GFP, % of control": 120, "viability (ATP), % of control": 82.4, "Call": "active"}
{"gene": "Tssk4", "siRNA no.": 1, "GFP, % of control": 79.9, "viability (ATP), % of control": 84.2, "Call": "inactive"}
{"gene": "H2-M10.6", "siRNA no.": 1, "GFP, % of control": 83.2, "viability (ATP), % of control": 64.7, "Call": "inactive"}
{"gene": "H2-M10.6", "siRNA no.": 2, "GFP, % of control": 85.8, "viability (ATP), % of control": 79.9, "Call": "inactive"}
{"gene": "H2-M10.6", "siRNA no.": 3, "GFP, % of control": 73.4, "viability (ATP), % of control": 66.3, "Call": "inactive"}
{"gene": "Zfp78", "siRNA no.": 1, "GFP, % of control": 92.4, "viability (ATP), % of control": 75.7, "Call": "inactive"}
{"gene": "Zfp78", "siRNA no.": 2, "GFP, % of control": 55.1, "viability (ATP), % of control": 46.7, "Call": "inactive"}
{"gene": "D830044D21Rik", "siRNA no.": 1, "GFP, % of control": 50.4, "viability (ATP), % of control": 79, "Call": "inactive"}
{"gene": "D830044D21Rik", "siRNA no.": 2, "GFP, % of control": 87.1, "viability (ATP), % of control": 82.9, "Call": "inactive"}
{"gene": "D830044D21Rik", "siRNA no.": 3, "GFP, % of control": 111, "viability (ATP), % of control": 97.6, "Call": "inactive"}

Next part, starting with the last 5 of the part before.
{"gene": "Zfp78", "siRNA no.": 1, "GFP, % of control": 92.4, "viability (ATP), % of control": 75.7, "Call": "inactive"}
{"gene": "Zfp78", "siRNA no.": 2, "GFP, % of control": 55.1, "viability (ATP), % of control": 46.7, "Call": "inactive"}
{"gene": "D830044D21Rik", "siRNA no.": 1, "GFP, % of control": 50.4, "viability (ATP), % of control": 79, "Call": "inactive"}
{"gene": "D830044D21Rik", "siRNA no.": 2, "GFP, % of control": 87.1, "viability (ATP), % of control": 82.9, "Call": "inactive"}
{"gene": "D830044D21Rik", "siRNA no.": 3, "GFP, % of control": 111, "viability (ATP), % of control": 97.6, "Call": "inactive"}
{"gene": "2610008E11Rik", "siRNA no.": 1, "GFP, % of control": 116, "viability (ATP), % of control": 109, "Call": "inactive"}
{"gene": "2610008E11Rik", "siRNA no.": 2, "GFP, % of control": 46.4, "viability (ATP), % of control": 64.9, "Call": "inactive"}
{"gene": "2610008E11Rik", "siRNA no.": 3, "GFP, % of control": 74.4, "viability (ATP), % of control": 73.6, "Call": "inactive"}
{"gene": "Pip5k1a", "siRNA no.": 1, "GFP, % of control": 58.8, "viability (ATP), % of control": 57.8, "Call": "inactive"}
{"gene": "Dbr1", "siRNA no.": 1, "GFP, % of control": 86.9, "viability (ATP), % of control": 65, "Call": "inactive"}
{"gene": "Dbr1", "siRNA no.": 2, "GFP, % of control": 74.3, "viability (ATP), % of control": 68.9, "Call": "inactive"}
{"gene": "Dbr1", "siRNA no.": 3, "GFP, % of control": 93.2, "viability (ATP), % of control": 77, "Call": "inactive"}
{"gene": "Reg3a", "siRNA no.": 1, "GFP, % of control": 91.9, "viability (ATP), % of control": 77.4, "Call": "inactive"}
{"gene": "Reg3a", "siRNA no.": 2, "GFP, % of control": 73.8, "viability (ATP), % of control": 65.4, "Call": "inactive"}
{"gene": "Reg3a", "siRNA no.": 3, "GFP, % of control": 74.3, "viability (ATP), % of control": 58.1, "Call": "inactive"}
{"gene": "Adam1b", "siRNA no.": 1, "GFP, % of control": 48.7, "viability (ATP), % of control": 22.5, "Call": "inactive"}
{"gene": "Adam1b", "siRNA no.": 2, "GFP, % of control": 83.3, "viability (ATP), % of control": 92.8, "Call": "inactive"}
{"gene": "Adam1b", "siRNA no.": 3, "GFP, % of control": 81.6, "viability (ATP), % of control": 94.1, "Call": "inactive"}
{"gene": "Krtap14", "siRNA no.": 1, "GFP, % of control": 91.2, "viability (ATP), % of control": 105, "Call": "inactive"}
{"gene": "Krtap14", "siRNA no.": 2, "GFP, % of control": 79.8, "viability (ATP), % of control": 90.3, "Call": "inactive"}
{"gene": "Krtap14", "siRNA no.": 3, "GFP, % of control": 94.8, "viability (ATP), % of control": 92.4, "Call": "inactive"}
{"gene": "AY702102", "siRNA no.": 1, "GFP, % of control": 82.4, "viability (ATP), % of control": 78.2, "Call": "inactive"}
{"gene": "AY702102", "siRNA no.": 2, "GFP, % of control": 57.1, "viability (ATP), % of control": 78.5, "Call": "inactive"}
{"gene": "AY702102", "siRNA no.": 3, "GFP, % of control": 41, "viability (ATP), % of control": 47.1, "Call": "inactive"}
